The data set is described as follows: peptide made by a vendor. The conditions noted are these: whole synthesis, one disulfide bridge, sequence written open.

For CCRGDK(NAA)GPDC (CCRGDKGPDC), the “purity (crude or final not stated)” value was 85%.

The record behind these values is US10428114B2 (SICHUAN UNIVERSITY, priority 2015, dated 2019).
